The results in this text go back to publication PMC7862700.

By UniProt entry, the sequences of proteins in these tests, tags left out. Where a name states a change or a piece, a line headed by the entry shows the natural chain unless it says otherwise.
UniProt P32519: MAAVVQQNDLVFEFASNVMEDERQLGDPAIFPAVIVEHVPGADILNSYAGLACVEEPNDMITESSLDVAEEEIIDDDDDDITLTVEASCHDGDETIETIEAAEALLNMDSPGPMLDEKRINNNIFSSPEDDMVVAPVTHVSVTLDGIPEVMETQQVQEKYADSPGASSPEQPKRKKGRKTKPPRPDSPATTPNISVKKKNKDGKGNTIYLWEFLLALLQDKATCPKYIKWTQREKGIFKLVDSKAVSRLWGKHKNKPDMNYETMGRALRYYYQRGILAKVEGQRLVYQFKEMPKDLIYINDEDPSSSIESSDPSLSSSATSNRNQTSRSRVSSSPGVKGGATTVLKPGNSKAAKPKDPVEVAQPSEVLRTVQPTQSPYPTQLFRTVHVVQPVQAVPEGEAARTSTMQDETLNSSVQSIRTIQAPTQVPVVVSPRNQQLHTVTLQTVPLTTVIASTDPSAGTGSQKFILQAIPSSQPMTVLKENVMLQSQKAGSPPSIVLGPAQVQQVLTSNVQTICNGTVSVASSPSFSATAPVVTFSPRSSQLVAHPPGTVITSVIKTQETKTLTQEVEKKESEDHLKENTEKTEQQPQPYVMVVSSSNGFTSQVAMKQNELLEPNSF
UniProt P50549: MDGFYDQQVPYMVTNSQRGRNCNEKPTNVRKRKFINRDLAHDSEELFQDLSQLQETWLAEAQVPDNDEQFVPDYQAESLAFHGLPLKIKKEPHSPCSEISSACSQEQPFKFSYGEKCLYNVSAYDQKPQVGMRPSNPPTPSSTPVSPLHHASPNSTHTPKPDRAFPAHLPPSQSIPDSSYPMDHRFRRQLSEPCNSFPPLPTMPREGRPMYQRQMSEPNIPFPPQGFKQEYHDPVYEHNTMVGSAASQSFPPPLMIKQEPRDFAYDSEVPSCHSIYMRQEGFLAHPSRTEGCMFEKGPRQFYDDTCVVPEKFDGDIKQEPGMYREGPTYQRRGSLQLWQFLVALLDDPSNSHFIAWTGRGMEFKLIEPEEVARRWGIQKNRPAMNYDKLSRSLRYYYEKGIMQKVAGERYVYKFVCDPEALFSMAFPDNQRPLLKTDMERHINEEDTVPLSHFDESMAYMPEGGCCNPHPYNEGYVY

Only a part is listed here, and it is no random draw. For part of these data: At the low end of the ranking, values are background and their order means little. This is one part of the list. For part of these data: Construct or isoform of the protein are uncertain.

Common to all, as to assay: DAPPL (digital affinity profiling via proximity ligation, sequencing)
Common to all, as to details: 10 mM Tris-HCl pH 7.5, 50 mM NaCl, 1 mM DTT, 4% glycerol, room temperature, 30 min; GST-TFs on glutathione beads, 16-mer random dsDNA library, 0.1% …; high values mean tight binding; double strand, one strand shown; scale: fold enrichment (6-mer frequency, TF over GST control)

For one experiment, the target named is T1, ERG (UniProt P11308).
T1 sequence: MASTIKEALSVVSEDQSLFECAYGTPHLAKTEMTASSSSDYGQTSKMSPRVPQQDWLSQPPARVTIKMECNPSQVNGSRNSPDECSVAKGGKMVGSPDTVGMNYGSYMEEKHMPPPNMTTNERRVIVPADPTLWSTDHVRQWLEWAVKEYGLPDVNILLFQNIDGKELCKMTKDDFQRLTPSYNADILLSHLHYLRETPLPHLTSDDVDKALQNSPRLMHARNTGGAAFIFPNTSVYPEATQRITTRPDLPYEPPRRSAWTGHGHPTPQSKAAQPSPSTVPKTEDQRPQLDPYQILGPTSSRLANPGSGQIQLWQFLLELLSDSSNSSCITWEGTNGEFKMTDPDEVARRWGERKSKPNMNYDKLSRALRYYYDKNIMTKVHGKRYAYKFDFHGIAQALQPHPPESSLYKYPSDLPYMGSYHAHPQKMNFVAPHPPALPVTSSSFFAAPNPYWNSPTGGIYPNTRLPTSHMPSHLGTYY

The next experiment deals with ELF1 (UniProt P32519).
Another experiment deals with T2, ELK4 (UniProt P28324-2).
T2 sequence: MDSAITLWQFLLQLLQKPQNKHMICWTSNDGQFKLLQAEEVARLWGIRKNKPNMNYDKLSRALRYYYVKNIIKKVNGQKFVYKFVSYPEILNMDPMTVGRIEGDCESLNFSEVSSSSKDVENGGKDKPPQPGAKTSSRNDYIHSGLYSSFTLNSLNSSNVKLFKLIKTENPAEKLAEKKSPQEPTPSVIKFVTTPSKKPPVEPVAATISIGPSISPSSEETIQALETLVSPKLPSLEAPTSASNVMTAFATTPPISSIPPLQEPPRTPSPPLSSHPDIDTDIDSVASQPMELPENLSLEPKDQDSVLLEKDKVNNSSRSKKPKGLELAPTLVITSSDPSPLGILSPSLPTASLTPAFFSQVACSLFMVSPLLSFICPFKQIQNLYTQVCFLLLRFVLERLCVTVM

The next experiment has as its target T3, ETV4 (UniProt P43268).
T3 sequence: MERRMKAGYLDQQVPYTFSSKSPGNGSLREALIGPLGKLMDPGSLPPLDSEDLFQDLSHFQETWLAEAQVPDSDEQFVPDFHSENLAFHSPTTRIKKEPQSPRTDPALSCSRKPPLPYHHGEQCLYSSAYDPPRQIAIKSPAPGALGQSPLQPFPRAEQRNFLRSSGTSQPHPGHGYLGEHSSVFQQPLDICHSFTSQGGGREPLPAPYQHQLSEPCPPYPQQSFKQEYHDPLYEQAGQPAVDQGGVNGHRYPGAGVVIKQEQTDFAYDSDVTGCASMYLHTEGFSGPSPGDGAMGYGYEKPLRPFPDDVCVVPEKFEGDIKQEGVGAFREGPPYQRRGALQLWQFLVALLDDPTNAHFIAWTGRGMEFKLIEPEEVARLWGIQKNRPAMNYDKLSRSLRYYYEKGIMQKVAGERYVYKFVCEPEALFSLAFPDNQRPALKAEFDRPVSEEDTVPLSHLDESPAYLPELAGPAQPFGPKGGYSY

Another experiment deals with ETV1 (UniProt P50549).
The target of another experiment is T4, ERF (UniProt P50548).
T4 sequence: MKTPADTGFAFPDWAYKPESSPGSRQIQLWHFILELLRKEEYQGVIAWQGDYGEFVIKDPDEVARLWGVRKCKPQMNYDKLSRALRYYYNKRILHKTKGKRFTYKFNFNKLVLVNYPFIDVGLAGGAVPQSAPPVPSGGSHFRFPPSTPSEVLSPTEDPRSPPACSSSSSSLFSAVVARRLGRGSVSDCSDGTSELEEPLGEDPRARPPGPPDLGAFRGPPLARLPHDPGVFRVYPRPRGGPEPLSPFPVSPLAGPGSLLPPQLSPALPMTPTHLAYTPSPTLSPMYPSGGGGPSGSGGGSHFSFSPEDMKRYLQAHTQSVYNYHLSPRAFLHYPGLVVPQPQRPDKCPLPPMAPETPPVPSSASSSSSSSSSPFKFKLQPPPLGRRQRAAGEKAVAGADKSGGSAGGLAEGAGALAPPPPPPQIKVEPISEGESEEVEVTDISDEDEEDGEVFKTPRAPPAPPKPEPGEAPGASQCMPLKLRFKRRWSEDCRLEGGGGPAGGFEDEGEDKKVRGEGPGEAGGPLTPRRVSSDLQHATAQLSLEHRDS

Regarding GGAGAT, the binding signal with ERG came out at 0.297; with ELF1, 0.303; with ELK4, 0.262; in the experiment with ETV4 it was 0.298; with ETV1, 0.296; in the experiment with ERF, 0.312.

Take AGGGTG: the binding signal with ERG came to 0.834; with ELF1, 0.79; in the experiment with ELK4 it was 0.823; in the experiment with ETV4, 0.728; with ETV1, 0.756; with ERF, 0.758.

Take TGAGAC: the binding signal with ERG was 0.499; with ELF1 it was 0.509; in the experiment with ELK4, 0.579; in the experiment with ETV4 it was 0.542; with ETV1, 0.457; in the experiment with ERF it was 0.559.

For GCATAT, the binding signal in the experiment with ERG was determined as 0.95; with ELF1, 0.886; in the experiment with ELK4 it was 1.07; in the experiment with ETV4 it was 0.971; with ETV1, 0.89; with ERF it was 0.961.

Take TAGGGG: the binding signal turned out to be 0.821 with ERG; 0.766 with ELF1; 0.814 in the experiment with ELK4; 0.778 with ETV4; 0.79 with ETV1; 0.869 with ERF.

For ACGGAG, the binding signal with ERG stood at 0.388; with ELF1, 0.377; with ELK4, 0.382; with ETV4 it was 0.382; in the experiment with ETV1 it was 0.377; in the experiment with ERF, 0.412.

Turning to ACAGAG, the binding signal is 0.711 in the experiment with ERG; 0.78 in the experiment with ELF1; 0.76 with ELK4; 0.739 in the experiment with ETV4; 0.761 with ETV1; 0.804 with ERF.

Take GACAAG: the binding signal with ERG turned out to be 0.773; with ELF1, 0.826; in the experiment with ELK4 it was 0.687; with ETV4 it was 0.762; with ETV1 it was 0.76; with ERF it was 0.774.

As for GGGTTA, the binding signal with ERG stood at 0.755; with ELF1, 0.835; with ELK4, 0.816; in the experiment with ETV4, 0.826; with ETV1, 0.787; in the experiment with ERF, 0.756.

CGTGGT: the binding signal in the experiment with ERG was 0.597; in the experiment with ELF1, 0.577; in the experiment with ELK4, 0.722; with ETV4 it was 0.617; with ETV1 it was 0.577; with ERF it was 0.649.

On to CCGTGT, for which the binding signal in the experiment with ERG worked out at 0.491; in the experiment with ELF1 it was 0.479; with ELK4, 0.586; in the experiment with ETV4, 0.516; in the experiment with ETV1, 0.513; with ERF, 0.479.

As for TAGGAG, the binding signal with ERG came to 0.432; in the experiment with ELF1, 0.404; with ELK4 it was 0.441; with ETV4, 0.381; with ETV1, 0.414; with ERF, 0.482.

For the sequence AGTGAA, the binding signal in the experiment with ERG stood at 0.926; in the experiment with ELF1, 0.892; with ELK4, 0.837; with ETV4, 0.866; with ETV1, 0.913; in the experiment with ERF it was 0.845.

On to GCAGGC, for which the binding signal with ERG came out at 0.691; with ELF1, 0.7; with ELK4, 0.679; in the experiment with ETV4 it was 0.684; with ETV1, 0.653; with ERF it was 0.681.

With TCAGCG, the binding signal was found to be 0.788 with ERG; 0.798 in the experiment with ELF1; 0.918 with ELK4; 0.792 in the experiment with ETV4; 0.716 with ETV1; 0.675 in the experiment with ERF.

Turning to GCGCTG, the binding signal with ERG stood at 0.834; in the experiment with ELF1, 0.912; with ELK4, 0.883; with ETV4, 0.908; with ETV1 it was 0.899; with ERF it was 0.984.

GAGCGG: the binding signal with ERG was 0.522; with ELF1, 0.477; in the experiment with ELK4, 0.567; with ETV4, 0.479; with ETV1, 0.522; in the experiment with ERF, 0.509.

Regarding GTCAGC, the binding signal turned out to be 0.702 with ERG; 0.703 with ELF1; 0.748 in the experiment with ELK4; 0.766 in the experiment with ETV4; 0.727 in the experiment with ETV1; 0.632 with ERF.

With GTCATG, the binding signal with ERG stood at 0.815; in the experiment with ELF1, 0.755; with ELK4, 0.824; with ETV4, 0.802; in the experiment with ETV1 it was 0.902; with ERF it was 0.877.

As to AGACGT, the binding signal with ERG amounted to 0.505; in the experiment with ELF1 it was 0.467; in the experiment with ELK4, 0.494; with ETV4 it was 0.453; with ETV1, 0.427; in the experiment with ERF, 0.444.

For AGAGAG, the binding signal with ERG is 0.499; in the experiment with ELF1 it was 0.547; with ELK4, 0.517; in the experiment with ETV4, 0.508; in the experiment with ETV1 it was 0.508; with ERF, 0.551.

Consider TGTAGT, for which the binding signal in the experiment with ERG stood at 0.907; in the experiment with ELF1, 0.907; with ELK4, 0.97; in the experiment with ETV4 it was 0.86; in the experiment with ETV1 it was 0.945; with ERF, 0.89.

With TAGTGA, the binding signal with ERG turned out to be 0.566; with ELF1 it was 0.528; in the experiment with ELK4, 0.639; in the experiment with ETV4 it was 0.539; in the experiment with ETV1, 0.534; with ERF, 0.588.

As to TGGGGG, the binding signal amounted to 0.767 with ERG; 0.75 in the experiment with ELF1; 0.964 with ELK4; 0.686 in the experiment with ETV4; 0.823 with ETV1; 0.837 with ERF.

On to AGCAAG, for which the binding signal with ERG is 0.924; in the experiment with ELF1, 0.862; in the experiment with ELK4, 0.906; with ETV4, 0.864; in the experiment with ETV1, 0.842; in the experiment with ERF, 0.947.

In the case of GGGGTA, the binding signal was 0.746 with ERG; 0.727 in the experiment with ELF1; 0.732 with ELK4; 0.766 in the experiment with ETV4; 0.848 in the experiment with ETV1; 0.703 with ERF.

On to CGTGCT, for which the binding signal is 0.821 with ERG; 0.794 with ELF1; 0.928 in the experiment with ELK4; 0.879 with ETV4; 0.888 with ETV1; 0.902 with ERF.

Turning to CAGGAC, the binding signal is 0.783 with ERG; 0.765 with ELF1; 0.776 in the experiment with ELK4; 0.772 in the experiment with ETV4; 0.739 with ETV1; 0.712 with ERF.

In the case of CGGTCC, the binding signal worked out at 0.956 with ERG; 0.935 with ELF1; 1.08 with ELK4; 0.969 in the experiment with ETV4; 0.927 in the experiment with ETV1; 0.971 in the experiment with ERF.

For the sequence CAGGCA, the binding signal is 0.766 with ERG; 0.734 with ELF1; 0.744 in the experiment with ELK4; 0.741 with ETV4; 0.72 with ETV1; 0.688 with ERF.
